Source: PubChem BioAssay AID1259254 (NCATS, 2017)
Purpose: 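Genome-wide screen for genes that prevent DNA re-replication in cancer cells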 (primary screen). Cells: human HCT116 colorectal cancer cells. Reagents: single siRNA against human genes. Timing: 3 days. Measured: 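Imaged Hoechst DNA stain sorts each cell into a cycle phase by DNA amount; per plate, G2 fraction set to 0% for non-targeting and 100% for GMNN siRNA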. Direction: G2 robust z-score and G2 cells, % of GMNN control: higher = more G2 cells, more excess DNA replication. Rule for the call: 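Active siRNAs have a G2 robust z of 5 or more median absolute deviations over the median, which in these data means about 38% or higher of GMNN control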.
This is an unselected part of about 59,000 reagents. About 1,550 of all reagents (2.6%) count as active. 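G2 share is only a proxy for re-replication; each gene was hit by three separate siRNAs, and active genes were retested.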 Not all columns of the deposit are shown. The record does not give: the amount of reagent.

no.	Target gene	PubChem SID	G2 robust z-score	G2 cells, % of GMNN control	Call
1	LINC02145	SID160767177	0.644	7.5	inactive
2	LINC02145	SID160767178	-1.21	-5.52	inactive
3	LINC02145	SID160767179	-1.37	-6.64	inactive
4	OGFRL1	SID160749028	-0.471	-0.349	inactive
5	OGFRL1	SID160749029	0.883	9.18	inactive
6	OGFRL1	SID160749030	0.696	7.87	inactive
7	GLIS3	SID160760362	3.54	27.9	inactive
8	GLIS3	SID160760363	0.0291	3.17	inactive
9	GLIS3	SID160760364	-0.645	-1.57	inactive
10	F11	SID160763162	3.02	24.2	inactive
11	F11	SID160763174	0.452	6.15	inactive
12	F11	SID160763185	-0.131	2.04	inactive
13	POLRMT	SID160714646	-1.11	-4.82	inactive
14	POLRMT	SID160714647	-0.736	-2.21	inactive
15	POLRMT	SID160714648	-0.767	-2.43	inactive
16	AIF1	SID160715927	0.00915	3.03	inactive
17	AIF1	SID160723645	-0.385	0.256	inactive
18	AIF1	SID160730753	1.29	12	inactive
19	QSOX2	SID160760359	0.514	6.58	inactive
20	QSOX2	SID160760360	-0.478	-0.397	inactive
21	QSOX2	SID160760361	1.48	13.4	inactive
22	SIAH1	SID160716712	0.447	6.11	inactive
23	SIAH1	SID160716713	3.94	30.7	inactive
24	SIAH1	SID160716714	-0.739	-2.23	inactive

Targets above whose gene name begins with Q or q (3):
Target gene	PubChem SID	G2 robust z-score	G2 cells, % of GMNN control	Call
QSOX2	SID160760359	0.514	6.58	inactive
QSOX2	SID160760360	-0.478	-0.397	inactive
QSOX2	SID160760361	1.48	13.4	inactive

More records follow:
no.	Target gene	PubChem SID	G2 robust z-score	G2 cells, % of GMNN control	Call
25	FANCA	SID160720232	0.68	7.75	inactive
26	FANCA	SID160720339	1.74	15.2	inactive
27	FANCA	SID160720443	-0.247	1.23	inactive
28	FAM151A	SID160764001	-0.048	2.63	inactive
29	FAM151A	SID160764002	3.21	25.6	inactive
30	FAM151A	SID160764003	0.159	4.09	inactive
31	ERICH6B	SID160761488	0.364	5.53	inactive
32	ERICH6B	SID160761489	-0.181	1.7	inactive
33	ERICH6B	SID160761490	1.74	15.2	inactive
34	PRDM16	SID160726075	-0.508	-0.61	inactive
35	PRDM16	SID160726076	3.1	24.8	inactive
36	PRDM16	SID160726077	0.753	8.26	inactive
37	PRDM16	SID160747357	1.89	16.3	inactive
38	PRDM16	SID160747358	-0.948	-3.7	inactive
39	PRDM16	SID160747359	0.482	6.36	inactive
40	PCDH9	SID160713907	-0.0215	2.82	inactive
41	PCDH9	SID160713908	-1.19	-5.43	inactive
42	PCDH9	SID160713909	-0.108	2.21	inactive
43	ZNF384	SID160760488	2.64	21.6	inactive
44	ZNF384	SID160760489	1.64	14.5	inactive
45	ZNF384	SID160760490	12.6	91.5	active
46	PPIA	SID160743817	0.12	3.81	inactive
47	PPIA	SID160743923	-0.89	-3.29	inactive
48	PPIA	SID160744032	1.43	13	inactive
49	RTKN2	SID160761352	-0.224	1.39	inactive
50	RTKN2	SID160761353	-0.968	-3.85	inactive
51	RTKN2	SID160761354	-0.294	0.9	inactive
52	ZNF556	SID160749997	0.0552	3.36	inactive
53	ZNF556	SID160749998	1.21	11.5	inactive
54	ZNF556	SID160749999	-1.24	-5.74	inactive
55	FAM20C	SID160733653	-0.339	0.585	inactive
56	FAM20C	SID160745423	-0.36	0.438	inactive
57	FAM20C	SID160745424	0.269	4.86	inactive
58	GALNT14	SID160749017	0.556	6.88	inactive
59	GALNT14	SID160749018	-0.938	-3.63	inactive
60	GALNT14	SID160749019	-1.49	-7.53	inactive
61	MT4	SID160724623	8.01	59.4	active
62	MT4	SID160724624	1.94	16.6	inactive
63	MT4	SID160752418	0.379	5.63	inactive
64	H2BC5	SID160733051	4.63	35.6	inactive
65	H2BC5	SID160774812	2.53	20.8	inactive
66	H2BC5	SID160774813	0.134	3.91	inactive
67	NUDT18	SID160749665	0.332	5.31	inactive
68	NUDT18	SID160749666	0.176	4.2	inactive
69	NUDT18	SID160749667	-0.699	-1.95	inactive
